Measurements taken from PubChem BioAssay AID2685 (National Center for Advancing Translational Sciences (NCATS), 2010).
The other results are listed elsewhere or left out. These are further read-outs of the screen, such as a control signal, another cell line or another target. No call is given for them. Most of these compounds were active or inconclusive in the main read-out, so they are no random draw. The note in brackets gives the kind of curve behind each potency; many fits are weak.

Assay: qHTS Assay for Lipid Storage Modulators in Drosophila S3 Cells;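 as to cell number change: cells counted by Cell Tracker Red CMTPX staining in the red channel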
Conditions: BODIPY lipid droplet fluorescence, 18-24 h; for cell number change: measured here: cell count max response, cells fed with added oleic acid
Summary of the method: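 Drosophila S3 cells got compounds at several concentrations plus oleic acid (400 uM solution). Laser-scanning cytometry with 488 nm excitation read lipid droplets at 500-530 nm and cells at 575-640 nm. Percent activity was relative to 20 uM Triacsin C.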

[1] = measured here: lipid fluorescence (Fed channel) AC50, cells fed with added oleic acid
[2] = measured here: cell number channel AC50, cells fed with added oleic acid

Row | Structure (SMILES) | cell number change [%] | AC50 [1] | AC50 [2]
1 | Cc1ccc(C)c(N2CCN(C(=O)c3nn(C)c4c3CS(=O)(=O)c3ccccc3-4)CC2)c1 | 19.4 |  | 
2 | CCOc1cc(CNn2c(C)nnc2SCC(=O)NC(C)(C)C)ccc1OCC(=O)NC(C)(C)C | -15.9 | 13 µM [falling, single point] | 
3 | NC(=O)C1(N2CCCCC2)CCN(C(=S)Nc2ccc(S(N)(=O)=O)cc2)CC1 | 7.3 | 0.82 µM [falling, single point] | 
4 | Nn1c(SCC(=O)NNC(=O)c2ccccc2)nnc1-c1ccccc1F | 5.62 |  | 
5 | O=C(Nc1cccc(NC(=O)c2ccc(-c3ccc(Br)cc3)o2)c1)c1ccccc1 | 76.5 | 1.84 µM [rising, partial curve] | 1.16 µM [rising, full curve]
6 | COc1ccc(NS(=O)(=O)c2ccc3c(c2)NC(=O)CO3)cc1 | 15.7 |  | 
7 | Cc1ccn2c(Nc3ccccc3C)c(-c3cccnc3)nc2c1 | 39.4 | 29.1 µM [rising, single point] | 
8 | COCCCNC(=O)Cn1nnc(-c2ccc(NC(=O)c3ccc(F)cc3)cc2)n1 | 11.7 | 6.51 µM [rising, single point] | 
9 | COc1ccccc1/C=C/C(=O)NCCC1=CCCCC1 | -38.4 |  | 23.1 µM [falling, partial curve, poor fit]
10 | Oc1cc(NCc2cccnc2)ccc1-c1nc2ccccc2o1 | -16.2 |  | 
11 | O=C(NC(=S)Nc1ccc(NC(=O)c2ccccc2)cc1)c1ccc(F)cc1 | 135 | 0.103 µM [rising, full curve, poor fit] | 29.1 µM [rising, single point]
12 | CC(C)/C(=N\NC(=O)Nc1ccccc1)c1ccccc1 | 59.2 | 18.4 µM [rising, single point] | 9.2 µM [rising, partial curve]
13 | Cc1ccc(S(=O)(=O)Nc2c(NC3CCCCC3)c3ccccc3oc2=O)cc1C | -50.8 | 29.1 µM [falling, single point] | 29.1 µM [falling, single point]
14 | CCN(CC)CCNS(=O)(=O)c1ccc2[nH]cc(C(=O)O)c(=O)c2c1 | -5.97 | 25.9 µM [falling, partial curve] | 
15 | Cc1ccc(S(=O)(=O)N2CCN(C(=O)CN3C(=O)NC4(CCOc5ccccc54)C3=O)CC2)cc1 (stereo not drawn) | 37 | 0.082 µM [falling, full curve, poor fit] | 23.1 µM [rising, single point]
16 | CC1CCC2(CC1)NC(=O)N(CC(=O)NCCc1c[nH]c3ccccc13)C2=O (stereo not drawn) | 0.154 |  | 
17 | COc1ccc(C(=O)NCc2ccncc2)cc1S(=O)(=O)N1CCOCC1 | -8.96 | 6.51 µM [falling, single point] | 
18 | Cc1ccc(/C(N)=N/OC(=O)Cc2cccc3ccccc23)cc1 |  | 0.461 µM [rising, partial curve, poor fit] | 0.58 µM [rising, full curve]
19 | Cc1ccc(NC(=O)Nc2cnccn2)c(C)c1 | 8.42 | 29.1 µM [falling, single point] | 

A portion from the list above:
Row | Structure (SMILES) | cell number change [%] | AC50 [1] | AC50 [2]
3 | NC(=O)C1(N2CCCCC2)CCN(C(=S)Nc2ccc(S(N)(=O)=O)cc2)CC1 | 7.3 | 0.82 µM [falling, single point] | 
4 | Nn1c(SCC(=O)NNC(=O)c2ccccc2)nnc1-c1ccccc1F | 5.62 |  | 
5 | O=C(Nc1cccc(NC(=O)c2ccc(-c3ccc(Br)cc3)o2)c1)c1ccccc1 | 76.5 | 1.84 µM [rising, partial curve] | 1.16 µM [rising, full curve]
6 | COc1ccc(NS(=O)(=O)c2ccc3c(c2)NC(=O)CO3)cc1 | 15.7 |  | 
7 | Cc1ccn2c(Nc3ccccc3C)c(-c3cccnc3)nc2c1 | 39.4 | 29.1 µM [rising, single point] | 
8 | COCCCNC(=O)Cn1nnc(-c2ccc(NC(=O)c3ccc(F)cc3)cc2)n1 | 11.7 | 6.51 µM [rising, single point] | 
9 | COc1ccccc1/C=C/C(=O)NCCC1=CCCCC1 | -38.4 |  | 23.1 µM [falling, partial curve, poor fit]
10 | Oc1cc(NCc2cccnc2)ccc1-c1nc2ccccc2o1 | -16.2 |  | 
11 | O=C(NC(=S)Nc1ccc(NC(=O)c2ccccc2)cc1)c1ccc(F)cc1 | 135 | 0.103 µM [rising, full curve, poor fit] | 29.1 µM [rising, single point]
12 | CC(C)/C(=N\NC(=O)Nc1ccccc1)c1ccccc1 | 59.2 | 18.4 µM [rising, single point] | 9.2 µM [rising, partial curve]

(further entries)

Row | Structure (SMILES) | cell number change [%] | AC50 [1] | AC50 [2]
20 | CCOc1cc(/C=N/n2cnnc2)ccc1OCC(=O)Nc1ccccc1OC | 14.5 | 2.06 µM [rising, full curve] | 
21 | CC(C)C(O)(C#CCN1CCCCC1)c1ccccc1 (stereo not drawn) | -50.5 | 29.1 µM [falling, single point] | 0.651 µM [falling, full curve]
22 | CCc1ccc(CNC(=O)c2ccc3nc(C4CCCCC4)oc3c2)nc1 | -19.7 | 32.6 µM [falling, partial curve] | 
23 | O=C(Nc1cccnc1)c1ccc(S(=O)(=O)N2CCCCCC2)cc1 | 5.9 | 0.082 µM [falling, full curve, poor fit] | 
24 | Cc1cc(C(=O)OCC(=O)Nc2cccnc2Cl)c2ccccc2n1 | 31 | 0.00461 µM [rising, full curve, poor fit] | 0.00461 µM [rising, full curve]
25 | Cc1ccc2cccc(OCc3nnc(SCC(=O)O)n3C)c2n1 | -39.8 | 10.3 µM [falling, partial curve, poor fit] | 11.6 µM [falling, partial curve, poor fit]
26 | CCSCc1nc2ccccn2c1Br | -41.7 | 0.651 µM [falling, partial curve] | 0.58 µM [falling, full curve]
27 | O=C1/C(=C\c2ccc(C(F)(F)F)cc2)CSc2sccc21 | -56.1 |  | 29.1 µM [falling, single point]
28 | Cc1ccc(S(=O)(=O)N(C)C)cc1NC(=O)COC(=O)C1=COCCO1 | -0.535 | 6.51 µM [rising, single point] | 
29 | CCOC(=O)Cn1nc(C)cc1NC(=O)c1cc(OC)c(OC)c(OC)c1 | 24 | 29.1 µM [rising, single point] | 
30 | COc1cc(CSc2nnnn2-c2ccc(C)cc2)cc(OC)c1OC | 0.167 | 29.1 µM [falling, partial curve] | 
31 | COC(=O)c1c(C)[nH]c(C(=O)OC(C)C(=O)N(C)C2CCCCC2)c1C (stereo not drawn) |  | 1.46 µM [rising, partial curve, poor fit] | 2.59 µM [rising, partial curve, poor fit]
32 | Cc1ccnc2c(N3C(=O)C4C5C=CC(C5)C4C3=O)cccc12 (stereo not drawn) | 17 | 8.2 µM [rising, partial curve, poor fit] | 2.59 µM [rising, single point]
33 | O=C(Nc1ccccn1)C1CCN(c2ncnc3c2nc2n3CCCCC2)CC1 | 3.58 | 0.184 µM [falling, full curve, poor fit] | 
34 | CSCC(O)Cn1ncc2ccccc2c1=O (stereo not drawn) | 1.09 | 0.058 µM [falling, full curve] | 
35 | Cc1ccccc1NC(=O)C(=O)NNC(=O)COc1ccc2ccccc2c1 | 12.6 | 29.1 µM [rising, single point] | 
36 | Cc1ccc(Nc2nc(-c3cccnc3)nc3ccccc23)cc1 | -45.5 | 29.1 µM [falling, single point] | 29.1 µM [falling, single point]
37 | O=C(CP(=O)(O)CC(=O)c1ccccc1)c1ccccc1 | -11.2 | 29.1 µM [falling, single point] | 
38 | O=c1cc(-c2ccccc2Cl)oc2ccc([N+](=O)[O-])c(O)c12 | 11.8 | 0.058 µM [rising, full curve, poor fit] | 

Row | Structure (SMILES) | cell number change [%] | AC50 [1] | AC50 [2]
39 | COc1cc(C)c(C)cc1S(=O)(=O)NC1CC(C)(C)NC(C)(C)C1 | 1.4 | 25.9 µM [rising, single point] | 
40 | Cc1ccn(CC(=O)N2N=C(C(F)F)CC2(O)C(F)F)n1 (stereo not drawn) | -26.5 | 3.66 µM [falling, full curve] | 3.66 µM [falling, full curve, poor fit]
41 | O=C(CSC1=NS(=O)(=O)c2cc(Cl)ccc2N1)Nc1ccccc1C(F)(F)F |  |  | 6.51 µM [rising, single point]
42 | COc1ccnc(N2CCN(c3ccccc3)CC2)c1C#N |  | 6.51 µM [rising, single point] | 
43 | CCc1nnc(NC(=O)CN2C(=O)/C(=C/c3cc(OC)c(OC)c(OC)c3)SC2=S)s1 | 6.04 | 18.4 µM [rising, single point] | 
44 | O=C(NCCc1ccccc1)C1CCN(S(=O)(=O)c2cccc3nonc23)CC1 | -22.4 | 5.17 µM [falling, partial curve, poor fit] | 0.13 µM [falling, full curve, poor fit]
45 | Cc1ccc(-c2ccc(/C=N\n3cnnc3)o2)c(Br)c1 | 14.9 |  | 0.326 µM [rising, full curve, poor fit]
46 | c1ccc(C(Cc2nc(-c3ccncc3)no2)c2ccccc2)cc1 | 34 |  | 14.6 µM [rising, single point]
47 | COc1cc(N)c(Cl)cc1C(=O)OCC(=O)c1cccs1 | -6.58 | 5.62 µM [rising, single point] | 
48 | COc1cc(NC(=O)C2=C(N3CCOCC3)/C(=C\c3ccc(Cl)cc3Cl)CC2)cc(OC)c1OC | 8.7 | 0.461 µM [rising, partial curve] | 
49 | O=C(CN1C(=O)c2ccccc2C1=O)Nc1ccccc1C(F)(F)F | 53.5 |  | 23.1 µM [rising, single point]
50 | S=C(NC1CCCCC1)N1CCN(c2ccccn2)CC1 | 8.25 | 6.51 µM [falling, single point] | 
51 | Cn1cccc1C(=O)OCC(=O)N1CC(=O)Nc2ccccc21 | 3.54 |  | 
52 | Cc1ccc(S(=O)(=O)N2CCC(=O)N(CCOCc3cccc(F)c3)CC2)cc1 | 13.2 | 0.461 µM [rising, full curve, poor fit] | 
53 | Cc1cc(C)cc(NC(=O)CN2C(=O)NC(C)(c3ccccc3)C2=O)c1 (stereo not drawn) | 39.3 | 29.1 µM [rising, single point] | 
54 | COc1ccc(C(=O)Nc2nnc(-c3ccccc3)s2)cc1 | 7.97 | 29.1 µM [rising, single point] | 
55 | CCOC(=O)c1cn[nH]c1N | 17.8 | 29.1 µM [rising, partial curve, poor fit] | 
56 | CC(C)CCNC(=O)c1c[nH]c2ccc(S(=O)(=O)N3CCOCC3)cc2c1=O | -16.5 | 20.6 µM [falling, single point] | 
57 | CCCCOC(=O)c1ccc(NC(=O)c2cc(Cl)ccc2OC)cc1 |  | 29.1 µM [rising, single point] | 
